The source of these data is PubChem BioAssay AID1347426 (Functional Genomics Laboratory (NCATS/FGL), 2020).

Screen size: about 31,000 sequences; about 1,400 (4.5%) were called active.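 Rule for the calls: active = median seed-adjusted z-score above 1 or below -1; inactive = the rest.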 This is one part of the list.

This assay can be described thus: Novel Modifiers of Survival Motor Neuron (SMN) Protein: Gene Identification via Genome-wide siRNA Screen.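 Note: luminescence tracks full-length SMN protein made from the SMN2 reporter.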 The conditions noted are these: HEK293T SMN2-luciferase reporter, siRNA knockdown, 72 h; actives lie on both sides. The gist of the method:
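HEK293T cells stably carrying an SMN2 promoter/splicing cassette–luciferase reporter were reverse-transfected with 1 pmol siRNA per well (druggable-genome library, 3 siRNAs per gene) and grown 72 h at 37 °C. Luminescence, normalized to negative-control siRNA and log10-transformed, was scored as MAD.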
For orientation: In a reporter assay the amount or activity of a reporter protein is the signal.
For the sequence CAGCUCAUCGAAGACUAUATT against GPN2, the median seed-adjusted z-score was inactive: 0. The value for GGAGCACCGUUAAGGACAATT against APOC3 was inactive: 0.185. CCAGGUUGGUCUUCACAGATT against ONECUT1: the median seed-adjusted z-score is inactive: -0.367. In the case of GAAGUACCGGAGGAAUUUATT against ACSM1, the median seed-adjusted z-score was inactive: 0.658. The value for GGUCUCUCAGUGUCGAUUATT against ABCB11 was inactive: 0.14. GCACCAUAGACUACCGAAATT against RBM15: the median seed-adjusted z-score was inactive: -0.409. The value for GGAUUACUCUUUUGGUGCATT against IRF5 was inactive: -0.146. For CUCUAGAAUUUGGAUAAUATT against BATF3 the value was inactive: 0.698. Consider CAGCAAACAUGUUCAAAAUTT against NAPA, for which the median seed-adjusted z-score is inactive: -0.563.

As to CCCUGGCAGCUAGUAGGUUTT against BATF3, the median seed-adjusted z-score is inactive: 0.698. For GGCCUCCAUUUGUACCGAATT against SOD3 the value was inactive: -0.0691; for GAAAAGUUAUUACCAUGUATT against MARCKS, inactive: 0.379. Consider CGCUGGACGUGUCAGACAATT against MATN1, for which the median seed-adjusted z-score is inactive: -0.271.

For UGCCCUUGUUUGUCCAACATT against USP18, the median seed-adjusted z-score was inactive: -0.326. For GAACGGGACACUUUGCUAATT against INDO, the median seed-adjusted z-score was inactive: 0.0511. Consider GGAGACAAGCACAAGCUGATT against S100B, for which the median seed-adjusted z-score was inactive: 0.862. The value for GCGUAUCCGAGAACCACAATT against CDH15 was inactive: 0; that for CUGAGAAGCUUAUCCGAGATT against 4-Sep was inactive: -0.0124. For CCACCUAAUGAGUCCAAUUTT against TTLL7 the value was inactive: 0.00109. The value for CGACUCCGAGGAAAGCAAATT against HMX3 was inactive: 0.238.

Consider CCUGGUUGCUAACGACAAATT against PASK, for which the median seed-adjusted z-score was inactive: 0. For GCACCUUCUCAAGCCGAAATT against RPA2 the value was inactive: -0.0957.

Consider GGAGAUCUCAUUCUACAGATT against TJP3, for which the median seed-adjusted z-score was inactive: -0.183. The value for AGAUCUCCGCCUCGAGAAATT against TNNI3 was inactive: 0.516; that for CAUCUACUGUCAUUAACCATT against ITIH5 was inactive: -0.289. The value for CUAUAAUCCUACUAGUAAATT against MAN2A2 was inactive: -0.0938; that for CCAGCACAACUCUGAGAUATT against CYP2E1 was inactive: 0.81; that for GAUUCUUGGUAUCCGAUUUTT against ZFP161 was inactive: 0.154. The value for CCGGUGUUUCGGUACCAAATT against LHX1 was inactive: 0; that for GGAUCGGUAUAGACGGAGATT against RBM23 was inactive: 0.14; that for UGAGAGAUCCUUUCCUGAATT against FUT1 was inactive: 0.000845.

Consider CAGAAGGAAUUAGAUGGAATT against COX8C, for which the median seed-adjusted z-score is inactive: -0.0513. For AGUCCAAGGUGAUUACGCUTT against CPSF1 the value was active: 3.29.

On to CAAACGACCUUUGCCCAAATT against MED17, for which the median seed-adjusted z-score is active: -2.06. On to AUAUGUAAGAUACAAAGAATT against HPDL, for which the median seed-adjusted z-score was inactive: 0.483.

With UCCUCAGAUUCGAAGCUGATT against SEMA4B, the median seed-adjusted z-score is inactive: 0.185. The value for GGAUGAAAUAGAUAGCAUUTT against SCO1 was inactive: -0.251; that for GCGAGUUUCAGAAUUUACATT against SNX25 was inactive: -0.26. For GGAUGCAGGUAUUUGGAAATT against CACNA1E the value was inactive: 0.285.

Turning to CCUUCAAUGUGAUCCGCCUTT against HSD17B10, the median seed-adjusted z-score is inactive: -0.355. The value for GAAAAUCCGUUCUAAAGUATT against ITGB3 was inactive: 0.456; that for GCAAAUAUAUCGAGAACCATT against ENPP7 was inactive: -0.478; that for CCAUCAGACAAGUCCCUGUTT against MAP1S was inactive: 0.0941. For GGUCCAAUUUGUAAUUGAUTT against GRM8 the value was inactive: 0.129; for GACGUGUGCUAACAACAGATT against NID1, inactive: 0.761; for CCUACGAAAUGUGCCUCAATT against FBXO6, inactive: 0.0361. Turning to CGAGGAUUCCUAUUUAGCUTT against GCNT1, the median seed-adjusted z-score is inactive: 0.463.

CCGCGAAGAUGUUAGCAUUTT against PRSS12: the median seed-adjusted z-score was inactive: 0.119. For GGAAUGUAAAUGCCUCUUUTT against EIF4E3 the value was inactive: 0; for GGACUUGCUCGGCUCUAUATT against CRKRS, active: -1.16; for UCAUCCUCAUCAACCAGUATT against ATP6V1F, inactive: -0.428. For GAAAAAUACUGGUUGUACATT against NUDT6 the value was inactive: 0.281; for GAAUUAAUGAUACCAGCAATT against GPR111, inactive: 0.

GCAAUUUCCAGGUAUUGAATT against MCTS1: the median seed-adjusted z-score was inactive: 0.116.

For GGCUUGAUGGUAAUCAGUATT against SIRT1, the median seed-adjusted z-score was inactive: 0. The value for GGAUGCUGCUGAGAACUAUTT against PIK3R3 was active: -1.88. For ACCCUACCAGUGUAUCAUATT against ZNF684 the value was inactive: 0.189; for GUAUUAACAUUGUUUCGAUTT against ABCB4, inactive: 0; for GCAAGUUUGACAACCUCUATT against AHCY, inactive: -0.189.

For the sequence ACAUUUCAGUGGAUAAUUUTT against GNG4, the median seed-adjusted z-score was inactive: -0.188. For GUACUUUAAAGAUUGGAAUTT against LOC730394 the value was inactive: -0.226. Regarding GGCUUUGCCUGAGCACAGATT against GJA4, the median seed-adjusted z-score was inactive: -0.18. For ACCUGUUCGUCUCCACCAATT against APBA3 the value was inactive: -0.119. For AGAAGAGAUAUGUUGCAUATT against TPTE the value was inactive: 0.213; for GCAAUGGACGAAGACCUUUTT against PSMA8, inactive: 0.407. Turning to GAACCCAAGGGAUCCACUATT against FEN1, the median seed-adjusted z-score is inactive: -0.316. For GGAGGGUCGUCUCAAGUAUTT against YWHAZ the value was inactive: 0.721. The value for CAAGGAUAUAUCAAACUAUTT against MMP8 was inactive: -0.781; that for CGCCGACUGUCAUGCUUCATT against FCN1 was inactive: 0.346.
